Test results reported in PubChem BioAssay AID328 (DTP/NCI, 2004).
The list is a part of this screen's results and no random one: it covers a few groups of compounds. Other doses and runs of a compound may be missing. T/C is the treated group as % of the vehicle group. For survival time, the PubChem record calls one and a half times the control and up active, and a quarter to a half above the control has no call in these data; cut-offs in other NCI protocols can differ. Some T/C values are marked as having no survivor count here; that says nothing about deaths at the dose. Schedule codes are those of the source, read here as Q, the interval in days (D) or hours (H), X, the number of doses. Some entries were tested several times; the values are given in rising order.

System: BDF1 mice, P388 leukemia ip, median survival T/C
Test: NCI In Vivo Anticancer Drug Screen. Data for tumor model P388 Leukemia (intraperitoneal) in B6D2F1 (BDF1) mice
Conditions: T/C endpoint: median survival time, higher T/C = longer survival
Experimental: The antitumor activity of compounds was measured in mice bearing transplantable tumors. Survival or tumor size were measured and the results are expressed as the measurement made in the treated group (T) divided by the measurement made in the vehicle treated control group (C). The tumor model used in this assay is P388 Leukemia (intraperitoneal) in B6D2F1 (BDF1) mice

For `CN(CCBr)CCBr`, the T/C (dose: 0.04 mg/kg/injection, schedule: Q04DX003 (ip), vehicle: saline) was 162 % of control [survivor count not shown], the T/C (dose: 0.06 mg/kg/injection, schedule: Q01DX009 (ip), vehicle: saline) was 156 % of control [survivor count not shown] and the T/C (dose: 0.06 mg/kg/injection, schedule: Q04DX003 (ip), vehicle: saline) was 179 % of control [survivor count not shown]. For the same compound, the T/C (dose: 0.09 mg/kg/injection, schedule: Q04DX003 (ip), vehicle: saline) was 162 [survivor count not shown] and 169 % of control [survivor count not shown], the T/C (dose: 0.12 mg/kg/injection, schedule: Q01DX009 (ip), vehicle: saline) was 192 % of control [survivor count not shown] and the T/C (dose: 0.13 mg/kg/injection, schedule: Q04DX003 (ip), vehicle: saline) was 192 % of control [survivor count not shown]. The T/C (dose: 0.14 mg/kg/injection, schedule: Q04DX003 (ip), vehicle: saline) was 191 % of control [survivor count not shown], the T/C (dose: 0.21 mg/kg/injection, schedule: Q01DX009 (ip), vehicle: saline) was 273 % of control [survivor count not shown] and the T/C (dose: 0.22 mg/kg/injection, schedule: Q04DX003 (ip), vehicle: saline) was 173 % of control [survivor count not shown]. For the same compound, the T/C (dose: 0.25 mg/kg/injection, schedule: Q01DX009 (ip), vehicle: saline) was 228 % of control [survivor count not shown], the T/C (dose: 0.25 mg/kg/injection, schedule: Q04DX003 (ip), vehicle: saline) was 192 % of control [survivor count not shown] and the T/C (dose: 0.33 mg/kg/injection, schedule: Q01DX009 (ip), vehicle: saline) was 277 % of control [survivor count not shown]. The T/C (dose: 0.33 mg/kg/injection, schedule: Q04DX003 (ip), vehicle: saline) was 195 [survivor count not shown] and 204 % of control [survivor count not shown], the T/C (dose: 0.37 mg/kg/injection, schedule: Q04DX003 (ip), vehicle: saline) was 268 % of control [survivor count not shown] and the T/C (dose: 0.5 mg/kg/injection, schedule: Q01DX009 (ip), vehicle: saline) was 228 [survivor count not shown] and 277 % of control [survivor count not shown]. For the same compound, the T/C (dose: 0.5 mg/kg/injection, schedule: Q04DX003 (ip), vehicle: saline) was 250 [survivor count not shown] and 281 % of control [survivor count not shown], the T/C (dose: 0.75 mg/kg/injection, schedule: Q04DX003 (ip), vehicle: saline) was 187 [survivor count not shown] and 209 % of control [survivor count not shown] and the T/C (dose: 1.0 mg/kg/injection, schedule: Q04DX003 (ip), vehicle: saline) was 283 % of control [survivor count not shown]. The T/C (dose: 1.1 mg/kg/injection, schedule: Q04DX003 (ip), vehicle: saline) was 250 % of control [survivor count not shown], the T/C (dose: 1.5 mg/kg/injection, schedule: Q04DX003 (ip), vehicle: saline) was 90 [survivor count not shown] and 108 % of control [survivor count not shown] and the T/C (dose: 17.0 micrograms/kg/injection, schedule: Q04DX003 (ip), vehicle: saline) was 112 % of control [survivor count not shown]. For the same compound, the T/C (dose: 26.0 micrograms/kg/injection, schedule: Q04DX003 (ip), vehicle: saline) was 120 % of control [survivor count not shown], the T/C (dose: 40.0 micrograms/kg/injection, schedule: Q04DX003 (ip), vehicle: saline) was 170 % of control [survivor count not shown] and the T/C (dose: 50.0 micrograms/kg/injection, schedule: Q01DX009 (ip), vehicle: saline) was 158 % of control [survivor count not shown]. For the same compound, the T/C (dose: 75.0 micrograms/kg/injection, schedule: Q01DX009 (ip), vehicle: saline) was 193 % of control [survivor count not shown], the T/C (dose: 100.0 micrograms/kg/injection, schedule: Q01DX009 (ip), vehicle: saline) was 195 % of control [survivor count not shown] and the T/C (dose: 150.0 micrograms/kg/injection, schedule: Q01DX009 (ip), vehicle: saline) was 218 % of control [survivor count not shown]. For the same compound, the T/C (dose: 200.0 micrograms/kg/injection, schedule: Q01DX009 (ip), vehicle: saline) was 164 % of control [survivor count not shown].

With `BrCCN(CCBr)Cc1ccccc1` the T/C (dose: 0.3 mg/kg/injection, schedule: Q01DX009 (ip), vehicle: saline with Tween-80) was 141 % of control [survivor count not shown], the T/C (dose: 0.5 mg/kg/injection, schedule: Q01DX009 (ip), vehicle: saline with Tween-80) was 137 % of control [survivor count not shown] and the T/C (dose: 0.74 mg/kg/injection, schedule: Q04DX003 (ip), vehicle: saline with Tween-80) was 122 % of control [survivor count not shown]. For the same compound, the T/C (dose: 0.75 mg/kg/injection, schedule: Q01DX009 (ip), vehicle: Klucel (hydroxypropylcellulose) (HPC)) was 139 % of control [survivor count not shown], the T/C (dose: 0.8 mg/kg/injection, schedule: Q01DX009 (ip), vehicle: saline with Tween-80) was 158 % of control [survivor count not shown] and the T/C (dose: 1.1 mg/kg/injection, schedule: Q04DX003 (ip), vehicle: saline with Tween-80) was 131 % of control [survivor count not shown]. For the same compound, the T/C (dose: 1.3 mg/kg/injection, schedule: Q01DX009 (ip), vehicle: saline with Tween-80) was 150 [survivor count not shown] and 158 % of control [survivor count not shown], the T/C (dose: 1.5 mg/kg/injection, schedule: Q01DX009 (ip), vehicle: Klucel (hydroxypropylcellulose) (HPC)) was 140 % of control [survivor count not shown] and the T/C (dose: 1.5 mg/kg/injection, schedule: Q04DX003 (ip), vehicle: Klucel (hydroxypropylcellulose) (HPC)) was 132 % of control [survivor count not shown]. The T/C (dose: 1.7 mg/kg/injection, schedule: Q04DX003 (ip), vehicle: saline with Tween-80) was 131 [survivor count not shown] and 145 % of control [survivor count not shown], the T/C (dose: 2.0 mg/kg/injection, schedule: Q01DX009 (ip), vehicle: saline with Tween-80) was 170 % of control [survivor count not shown] and the T/C (dose: 2.6 mg/kg/injection, schedule: Q04DX003 (ip), vehicle: saline with Tween-80) was 127 [survivor count not shown], 150 [survivor count not shown], 175 % of control [survivor count not shown]. For the same compound, the T/C (dose: 3.0 mg/kg/injection, schedule: Q01DX009 (ip), vehicle: Klucel (hydroxypropylcellulose) (HPC)) was 150 % of control [survivor count not shown], the T/C (dose: 3.0 mg/kg/injection, schedule: Q01DX009 (ip), vehicle: saline with Tween-80) was 169 [survivor count not shown], 179 [survivor count not shown], 204 % of control [survivor count not shown] and the T/C (dose: 3.0 mg/kg/injection, schedule: Q04DX003 (ip), vehicle: Klucel (hydroxypropylcellulose) (HPC)) was 148 % of control [survivor count not shown]. For the same compound, the T/C (dose: 3.0 mg/kg/injection, schedule: Q04DX003 (ip), vehicle: saline with Tween-80) was 238 % of control [survivor count not shown], the T/C (dose: 4.0 mg/kg/injection, schedule: Q04DX003 (ip), vehicle: saline with Tween-80) was 159 [survivor count not shown] and 180 % of control [survivor count not shown] and the T/C (dose: 4.5 mg/kg/injection, schedule: Q01DX009 (ip), vehicle: saline with Tween-80) was 191 % of control [survivor count not shown]. For the same compound, the T/C (dose: 6.0 mg/kg/injection, schedule: Q01DX009 (ip), vehicle: saline with Tween-80) was 121 % of control [survivor count not shown], the T/C (dose: 6.0 mg/kg/injection, schedule: Q04DX003 (ip), vehicle: Klucel (hydroxypropylcellulose) (HPC)) was 160 % of control [survivor count not shown] and the T/C (dose: 6.0 mg/kg/injection, schedule: Q04DX003 (ip), vehicle: saline with Tween-80) was 159 [survivor count not shown], 195 [survivor count not shown], 216 % of control [survivor count not shown]. For the same compound, the T/C (dose: 9.0 mg/kg/injection, schedule: Q04DX003 (ip), vehicle: saline with Tween-80) was 160 % of control [survivor count not shown] and the T/C (dose: 12.0 mg/kg/injection, schedule: Q04DX003 (ip), vehicle: saline with Tween-80) was 88 % of control [survivor count not shown].
